Reference: PubChem BioAssay AID1508600 (Functional Genomics Laboratory (NCATS/FGL), 2020)
Out of some 53,000 sequences screened, about 3,700 (7%) were called active.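 Rule for the calls: active = gene knockdowns whose robust z-score for IL-1 alpha signal is at least 2 or at most -2, so actives lie on both sides; inactive = the rest.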 This is one part of the list.

Test: Components of the Cytosolic LPS Sensing Pathway: Gene Identification via Genome-wide siRNA Screen;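 note: robust z of the log signal after scaling to non-targeting control siRNA wells of the plate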
Settings: RAW264.7 macrophages, IL-1a HTRF, actives lie on both sides, screened at 100 nM (by protocol), cells primed 5 h with Pam3CSK4 first
In short: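 Cells (RAW264.7, 1×10^4 per well) were transfected with siRNA at 100 nM and cultured 48h at 37 degrees C. Pam3CSK4 was added for 5 hours; LipidA transfection followed for 24 hour. IL-1a was then measured by HTRF.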

Question: With GCUGUGGGAGGAUAGCAUGTT against Mfsd3 as the sequence, how does the z-score read?
Answer: The z-score was inactive: -1.01.

Question: For “GGACAUUGCUUUUCACUAUTT against 4930447C04Rik”, which z-score is on record?
Answer: The z-score was inactive: -0.191.

Question: With GGAAUGCAAUGACAAAUGATT against Kank3 as the sequence, how does the z-score read?
Answer: Its z-score is inactive: 0.198.

Question: With GGCCAUUAUCAUCAAAGUATT against Dph6 as the sequence, how does the z-score read?
Answer: Its z-score is inactive: -1.69.

Question: Which z-score does the source give for GCCCUGUACCUUUUAGCUUTT against Olfr704 here?
Answer: Its z-score is inactive: -0.306.

Question: For GGUGAUAGGAGAGAGAAAGTT against Miga2, which z-score is on record?
Answer: The z-score was inactive: 0.447.

Question: Which z-score does the source give for CGGAUCACAUUGCAUAAAATT against Calcrl here?
Answer: The z-score was inactive: -0.295.

Question: Which z-score does the source give for GGAAACUACUACAAUCAAGTT against Pigl here?
Answer: Its z-score is inactive: 1.51.

Question: Which z-score does the source give for GGCAUGUCCAAGGAAUACUTT against Snrpg here?
Answer: Its z-score is inactive: -1.4.

Question: Which z-score does the source give for GGACUAGAAUAUCACAACGTT against Iqub here?
Answer: The z-score was inactive: 0.905.

Question: With CGAAUUCAUACCAGUGUGCTT against Ndufa10 as the sequence, how does the z-score read?
Answer: The z-score was active: 2.84.

Question: Which z-score does the source give for GGAUGUGACUCAGAUUGGGTT against Tmem171 here?
Answer: The z-score was inactive: 0.0209.

Question: Which z-score does the source give for GGUGCUGCCAAGAUCUCUUTT against Ido2 here?
Answer: Its z-score is inactive: -0.0285.

Question: Which z-score does the source give for CGGCACUGACUUAUUGUUCTT against Olfr574 here?
Answer: Its z-score is inactive: 0.886.

Question: For GGAGGGAGACCUUAUCUUATT against Tjp3, which z-score is on record?
Answer: Its z-score is inactive: -0.65.

Question: With GGCGAAGAAAAUUGAAAGATT against Utp11 as the sequence, how does the z-score read?
Answer: The z-score was inactive: 1.03.

Question: For GGGACAAAUUAACGACAUATT against Angptl3, which z-score is on record?
Answer: Its z-score is inactive: 0.0571.

Question: Which z-score does the source give for GCCUUGAAGAGUCUCAUAUTT against Farp1 here?
Answer: The z-score was inactive: 0.0568.

Question: For GCCAGGAUCCAUCAAUUCCTT against Olfr376, which z-score is on record?
Answer: The z-score was inactive: -1.84.

Question: For GGCUGAUGUUAACAUUGAATT against Cdkn2c, which z-score is on record?
Answer: The z-score was inactive: 1.31.

Question: With GGACAUUGAGGAUUAUGUCTT against Med24 as the sequence, how does the z-score read?
Answer: The z-score was inactive: 0.332.

Question: With GGUAGUUCCUAAUAUUACCTT against Tlr4 as the sequence, how does the z-score read?
Answer: The z-score was inactive: 0.634.

Question: With GGGAUUCUGAUCGUGUCCATT against Olfr1509 as the sequence, how does the z-score read?
Answer: The z-score was inactive: -1.1.

Question: With CCCGCUGGUGUUCCUUUGUTT against Mis18a as the sequence, how does the z-score read?
Answer: The z-score was inactive: 0.462.

Question: For GGAAAGUCUCUGUUGUUCUTT against Alas1, which z-score is on record?
Answer: The z-score was inactive: 1.51.

Question: For GCAGGCAACUCGAAUGAGATT against Tmem163, which z-score is on record?
Answer: Its z-score is inactive: 0.433.

Question: Which z-score does the source give for GAUGCAGCAGCCAUAAGAATT against Defa-rs12 here?
Answer: Its z-score is inactive: 0.167.

Question: With CCAUGACAUUUCCUAAGUUTT against Sall3 as the sequence, how does the z-score read?
Answer: Its z-score is inactive: -0.2.

Question: Which z-score does the source give for CGUGAGAUCAUUGAUGUGGTT against Ankrd2 here?
Answer: The z-score was inactive: -1.16.

Question: For GGUGUUGUGAAGUGUCAAATT against Dipk1a, which z-score is on record?
Answer: Its z-score is inactive: -0.0609.

Question: With GCCUUUCAUACAUUCAACATT against Olfr313 as the sequence, how does the z-score read?
Answer: The z-score was inactive: -1.49.

Question: With CCCGACUGAAUGCUCGGAUTT against Rnf220 as the sequence, how does the z-score read?
Answer: Its z-score is inactive: 0.386.

Question: Which z-score does the source give for “CCAGUAGUUACAAUGUUCUTT against 9530077C05Rik” here?
Answer: Its z-score is inactive: 0.49.

Question: With GGUCUUUGUCCUCAUUUUCTT against Olfr1205 as the sequence, how does the z-score read?
Answer: The z-score was inactive: 0.179.

Question: For CGUUUAUUGUAACCAGAAUTT against Fam168b, which z-score is on record?
Answer: The z-score was inactive: 0.263.

Question: With GGACAAAUCUUCGUGCAAATT against Tle4 as the sequence, how does the z-score read?
Answer: The z-score was inactive: 0.722.

Question: For GGGCUGAAUAAAAGCCAGATT against Zfp428, which z-score is on record?
Answer: Its z-score is inactive: 0.889.

Question: With GCCGGAUCUAUUAAAGAAATT against Hdac2 as the sequence, how does the z-score read?
Answer: The z-score was inactive: 0.134.

Question: Which z-score does the source give for GGAGUUGGAGAACAUUAUGTT against Dmrt2 here?
Answer: Its z-score is inactive: 0.783.

Question: For GGAUGAAGAUCAGAUUCAATT against Metap1d, which z-score is on record?
Answer: Its z-score is inactive: 0.317.

Question: Which z-score does the source give for GGCAUCUGAGCUGAGGAUUTT against Gem here?
Answer: Its z-score is inactive: -0.295.

Question: For GCUUGCUGUUACGAUUCGCTT against Rab35, which z-score is on record?
Answer: The z-score was inactive: 1.73.

Question: Which z-score does the source give for CGAUCUUCCGCUCUGACUCTT against Taar4 here?
Answer: Its z-score is inactive: -0.845.

Question: For GGGAAGCUGGGAAAAAAGATT against Tbc1d19, which z-score is on record?
Answer: The z-score was inactive: 0.825.

Question: With UAACUCCAUGAUCAAUCCCTT against Gpr6 as the sequence, how does the z-score read?
Answer: The z-score was inactive: 0.0493.

Question: Which z-score does the source give for CCAAAAAGAUGCUGUUAAGTT against Ankrd34b here?
Answer: The z-score was inactive: 1.07.

Question: With GGGUUCCUCCUUUCACAGATT against Ppia as the sequence, how does the z-score read?
Answer: The z-score was inactive: -1.3.

Question: For GGAAUACUUAUAGCUGACUTT against Sdr16c5, which z-score is on record?
Answer: The z-score was inactive: -1.34.

Question: Which z-score does the source give for CCAGCAGCAAUUAGGACGUTT against Ogdh here?
Answer: The z-score was inactive: -0.0569.

Question: With GUCAUGCCAGCAGAAAUGCTT against Sprr2j-ps as the sequence, how does the z-score read?
Answer: The z-score was inactive: -0.418.

Question: With CCCUAGGAAAGGGUUUUAGTT against Tmem129 as the sequence, how does the z-score read?
Answer: Its z-score is inactive: 1.39.

Question: Which z-score does the source give for GCCAUUAAUCUCACAUGUATT against Crebrf here?
Answer: The z-score was inactive: 1.39.

Question: Which z-score does the source give for GGAAUUUUCAAGGAACAAUTT against Il1rapl2 here?
Answer: The z-score was inactive: -1.8.

Question: With GGACCUGAGAGACUCUUUGTT against Ip6k2 as the sequence, how does the z-score read?
Answer: Its z-score is active: -3.

Question: Which z-score does the source give for GCCUGUGGUAGGAUACUAUTT against Denr here?
Answer: Its z-score is inactive: -0.964.

Question: For “GGAGUAGAUUUAAAAGGCATT against 4933440M02Rik”, which z-score is on record?
Answer: The z-score was inactive: 0.145.

Question: For GGUAUCAGAGCUGUGUUCUTT against Cpped1, which z-score is on record?
Answer: Its z-score is inactive: -1.48.

Question: For GGAGUACCCGGACUACAAGTT against Sox3, which z-score is on record?
Answer: Its z-score is inactive: 0.982.

Question: For GGCCAUCAGUAACCCAUUGTT against Olfr1132, which z-score is on record?
Answer: The z-score was inactive: -1.65.

Question: For GGUCCUCCAGUAAGGACAATT against Hsd3b6, which z-score is on record?
Answer: Its z-score is inactive: 1.56.

Question: With GGACCCAUGAGGUUAACUUTT against Tbc1d22a as the sequence, how does the z-score read?
Answer: Its z-score is inactive: 0.922.

Question: With GCCUUGAGAUGACGACAACTT against Thyn1 as the sequence, how does the z-score read?
Answer: The z-score was inactive: -0.29.

Question: Which z-score does the source give for GGAAAUGUGCAAUUUAGUGTT against Abcb1a here?
Answer: Its z-score is inactive: 1.

Question: For GGAAGGAUCAUACCUAUUUTT against Acbd3, which z-score is on record?
Answer: Its z-score is inactive: 0.551.

Question: For CCCUAUAAAGAGAAAUUGGTT against Zfp663, which z-score is on record?
Answer: Its z-score is inactive: -0.166.

Question: With AGGUGAUGGGUUAUGGCAGTT against Olfr1331 as the sequence, how does the z-score read?
Answer: Its z-score is inactive: 0.0143.

Question: Which z-score does the source give for GGGACACACGGUAUACAUCTT against Pfkl here?
Answer: The z-score was inactive: 0.627.

Question: With CCCUGCGCCCUCUAAUAAATT against Pla2g1b as the sequence, how does the z-score read?
Answer: Its z-score is inactive: -0.624.
